# Source: publication PMC7819943, “Rice protein-binding microarrays: a tool to detect cis-acting elements near promoter regions in rice”
# Amino acid sequences for entries named in this document (tags omitted).
# UniProt Q0JBA9, entry or part of it: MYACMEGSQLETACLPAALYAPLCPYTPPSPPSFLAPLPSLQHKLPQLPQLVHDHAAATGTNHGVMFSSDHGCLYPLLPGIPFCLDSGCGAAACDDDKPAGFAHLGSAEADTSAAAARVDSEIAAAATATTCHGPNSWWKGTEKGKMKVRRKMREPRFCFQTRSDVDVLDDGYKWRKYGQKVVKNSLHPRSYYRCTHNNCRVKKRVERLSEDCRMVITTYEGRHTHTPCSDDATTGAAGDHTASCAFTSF
# The other results are listed elsewhere or left out.
# Target: OsWRKY34 (Oryza sativa, UniProt Q0JBA9 1-250)
# Assay: protein-binding microarray (RPBM); PBS, 2% BSA, 51.3 ng/ul salmon testes DNA, 50 uM zinc acetate, 200 nM TF, 25 C, 1 h; high values mean tight binding
# Conditions: protein: recombinant; tags: N-terminal polyhistidine and DsRed monomer fusion (pET32a); label: CyDye5-dUTP incorporated in the synthesized complementary strand; 3' TTTTT single-stranded linker to array surface; dsDNA, one strand shown
# In short: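 Polyhistidine-tagged DsRed fusions of transcription factors, joined at the N-terminus, were expressed in E. coli BL21-CodonPlus and isolated on Ni–NTA. They were incubated at 200 nM for 1 h at 25 °C on a custom Agilent array, double-stranded and BSA-blocked, in PBS with 2% BSA, salmon testes DNA and 50 µM zinc acetate. The binding signal is per-feature fluorescence intensity (arbitrary units) read on an Axon 4000B scanner after washing.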
row,Sequence,binding signal
1,AATTCCATCTTTGCAGTAGTCCTTGGCTTGATAATACAGACGGAGTCACCTAGTGCAG,9050 fluorescence intensity (a.u.)
2,GGCTTCCTGTCCCGCGTCCGCGCCCACCACATCCGCAATTCGGAGTCACCTAGTGCAG,13300 fluorescence intensity (a.u.)
3,TTTCTCGAGAAAATATCCACAGTCATCGTTGTCTCCTCCGCGGAGTCACCTAGTGCAG,8990 fluorescence intensity (a.u.)
4,CTTCCCCGATGTGATGCCTACCGGATTCACACTTCCGTTACGGAGTCACCTAGTGCAG,8220 fluorescence intensity (a.u.)
5,CTCCAAACACATCCTTAGCATCCAAGTGAATCTCTTTGGACGGAGTCACCTAGTGCAG,9510 fluorescence intensity (a.u.)
6,GGCTGTTGTCAACCCATTTTCGAGTGATCCTGAAACAGATCGGAGTCACCTAGTGCAG,8300 fluorescence intensity (a.u.)
7,AAAGCATATACTCTCTCTCTATATTTTTTTTATACAGGTCCGGAGTCACCTAGTGCAG,8820 fluorescence intensity (a.u.)
8,AACTCACTCTCGCGTTCGCGTCGTCTCCGGCCTTTTCTTGCGGAGTCACCTAGTGCAG,8870 fluorescence intensity (a.u.)
9,ATTTAATTTGCTCTTTGACCCTCATCGTCTTCACTGTACACGGAGTCACCTAGTGCAG,11300 fluorescence intensity (a.u.)
10,TCTCTCTCTCGTGCGTCACCTCCTCGCGTGCTCAGCGCCGCGGAGTCACCTAGTGCAG,8780 fluorescence intensity (a.u.)
11,CTCCCTCCACACCGTCCGGCGAACTCCACGGCCACCTCCGCGGAGTCACCTAGTGCAG,9160 fluorescence intensity (a.u.)
12,GGGTTGGGATTTGACCAGGTTAAACCTCACGCAAACGGCACGGAGTCACCTAGTGCAG,9750 fluorescence intensity (a.u.)
13,GTACTAGTATTTTCACATATTGAATTTTTGTCACGCCTTTCGGAGTCACCTAGTGCAG,8540 fluorescence intensity (a.u.)
14,AGAATTTCTTTTTTTTGGTCCACAATGCATTAGGGGCGGTCGGAGTCACCTAGTGCAG,8040 fluorescence intensity (a.u.)
15,TCGGGGAGGTCGGGGTCGCTGGTTGGATCCAAGAAACGGTCGGAGTCACCTAGTGCAG,16000 fluorescence intensity (a.u.)
16,GTCGGCGAAGGAGGGGCTGGGGTTCGCGGCGGCGGCGGAGCGGAGTCACCTAGTGCAG,8290 fluorescence intensity (a.u.)
17,AGTCGCACATGTCCCACAAAACCACGTGAGTTTCCGTCAGCGGAGTCACCTAGTGCAG,8210 fluorescence intensity (a.u.)
18,ACCGAGCCCAAACCGTTGCTTCTGTCGTATTCTAGCGCATCGGAGTCACCTAGTGCAG,11200 fluorescence intensity (a.u.)
19,CCTGATCACTATGTCTCTGTATCAACAATTTTCCGGGTTACGGAGTCACCTAGTGCAG,9110 fluorescence intensity (a.u.)
20,GTCAGTCTCCTCCAAAGCATGCATCACATGTCATTTTTTACGGAGTCACCTAGTGCAG,9760 fluorescence intensity (a.u.)
21,AAACCCGCCCAGATCCTACTGAATTGCGTCATCCCACGATCGGAGTCACCTAGTGCAG,8150 fluorescence intensity (a.u.)

# Part of the list above, as tab-separated lines:
row	Sequence	binding signal
3	TTTCTCGAGAAAATATCCACAGTCATCGTTGTCTCCTCCGCGGAGTCACCTAGTGCAG	8990 fluorescence intensity (a.u.)
4	CTTCCCCGATGTGATGCCTACCGGATTCACACTTCCGTTACGGAGTCACCTAGTGCAG	8220 fluorescence intensity (a.u.)

# Following part.

row,Sequence,binding signal
1,CATATGTTTAACCGTTCGTCTTATTCAAAAACTTTTGTAACGGAGTCACCTAGTGCAG,8192 fluorescence intensity (a.u.)
2,AGTTTACTCCAGCTTCTTAACTTCTTGATACTGACTCACACGGAGTCACCTAGTGCAG,8950 fluorescence intensity (a.u.)
3,CGTTTGCTAAAGTCTGCTCTGATTGTATTACGTCCTGGGGCGGAGTCACCTAGTGCAG,8540 fluorescence intensity (a.u.)
4,CGTTGTTTGTTTCTTACTCTATCGTTCCAATTTAGTTTTTCGGAGTCACCTAGTGCAG,15500 fluorescence intensity (a.u.)
5,TTAAATTTCAGATCTTTTTGAGGTAGGGAGGGTTTTACAACGGAGTCACCTAGTGCAG,14900 fluorescence intensity (a.u.)
6,ACGCCCTATGTATATATCCTACTAGCATTAGTGAGTTCTCCGGAGTCACCTAGTGCAG,8750 fluorescence intensity (a.u.)
7,CACTTTCCACGCGCGCGCTGCGAGGCCGAGGCCGAGGAGACGGAGTCACCTAGTGCAG,8340 fluorescence intensity (a.u.)
8,GAATTGCACCCGTTCGACAGGGACCTACTTTCGCGATTTTCGGAGTCACCTAGTGCAG,10300 fluorescence intensity (a.u.)
9,GAGCGATATAGACCACGTTCCATCTCTCTAGTTTATATTTCGGAGTCACCTAGTGCAG,8400 fluorescence intensity (a.u.)
10,GTCCCTAGTTAAGCAGTCATTGTGTCCCTTACCCACCTAACGGAGTCACCTAGTGCAG,8920 fluorescence intensity (a.u.)
11,TGGCACGATGGATCCAACGCGCTGTTTCGTCGTTTCCGCGCGGAGTCACCTAGTGCAG,9060 fluorescence intensity (a.u.)
12,CCTTTTTTTTCTATTAAGATACATATTTTACTCGTGGTTTCGGAGTCACCTAGTGCAG,10100 fluorescence intensity (a.u.)
13,CTCTCTCCATGGCCGCGCCCGCGCCGCCCACGCCGGCGGCCGGAGTCACCTAGTGCAG,8920 fluorescence intensity (a.u.)
14,ATCCATCCATGTGTGTGTGTGCTGTGTTGTGTTAAGCTTTCGGAGTCACCTAGTGCAG,11000 fluorescence intensity (a.u.)
15,TGGTTTATAACCTGCTATTGTACCTGCTCTTATTCTTAGTCGGAGTCACCTAGTGCAG,9680 fluorescence intensity (a.u.)
16,TCCACCAAACCCCACTCCACACTTCCACAGTCCACACCCACGGAGTCACCTAGTGCAG,9060 fluorescence intensity (a.u.)
17,GACGAATGGTCAAACACGTACTAAAAAGTCAACGGTGTCACGGAGTCACCTAGTGCAG,12200 fluorescence intensity (a.u.)
18,AACTTCTTTCTCTTAACTCCACCTGCAACAGTACTCCACCCGGAGTCACCTAGTGCAG,8380 fluorescence intensity (a.u.)
19,GTGGGTCATTAATAAATACATCATATCTCTTCTCTACCAACGGAGTCACCTAGTGCAG,8830 fluorescence intensity (a.u.)
20,GCTGCTTCCCCAACATATATGCATGGACAAATGGACCGATCGGAGTCACCTAGTGCAG,8170 fluorescence intensity (a.u.)
21,GACTTGTTTCCTCTCCCGCGCCGCCGCCGTTCCGTTTTTTCGGAGTCACCTAGTGCAG,11100 fluorescence intensity (a.u.)
